Here are results for 17 sequences from the supplement of paper PMC10338343.

± gives the standard deviation. This is a selection; strong and weak results do not stand in their true shares. The uncertainty is large for many entries.
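Also: 1 nM active piRISC with 0.1 nM target library at 33 °C single turnover.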

The assay relates to MIWI (PIWIL1) piRISC loaded with piRNA #1 (30 nt). Description: pre-steady-state target cleavage rate (min^-1); MIWI and MILI are mouse PIWI proteins and EfPiwi is from a freshwater sponge; tags in brackets are library labels; higher = faster piRNA-guided slicing of the target. To be noted: guide: piRNA #1 5'p-UGAGGUAGUAGGUUGUAUAGUAUCCAGAGG; auxiliary factor: 500 nM mouse GTSF1. The gist of the method: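 Active affinity-purified piRISC carrying one synthetic guide (1 nM) was mixed with a transcribed, DNA-blocked target RNA library […] in HEPES–potassium acetate buffer at 33 °C for 0–8 or 0–960 min, with or without 500 nM GTSF1 partner protein. Uncleaved targets were then sequenced and normalised to depth and to weakly complementary targets. Three trials were pooled, and k3 was capped at 0.0001 min^-1. A burst-and-steady-state fit was applied to obtain the pre-steady-state cleavage rate.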
For GGAGACCUAUGAUAUGAACCAACUACGUCA, the “pre-steady-state target cleavage rate” value is 0.000102 ± 0.03.
Regarding “GGACUGGAUACUAUACAACCUACUACCUCC [g2:g27:cont:t1C]”, the “pre-steady-state target cleavage rate” value came out at 1.42 ± 0.088.
As to GGAGUGCAUAGUAUACAACCUACUACCUCA, the “pre-steady-state target cleavage rate” value is 0.659 ± 0.04.
Consider GGAGACCUAUCUAAACAACCAACUACCUCA, for which the “pre-steady-state target cleavage rate” value was determined as 0.00114 ± 0.0047.
In the case of GGAGACCUAUGUAUACAUCGUACUACCUCA, the “pre-steady-state target cleavage rate” value is 0.00183 ± 0.0047.
As for GGAGACCUAUGAUAUGUUGGUACUACCUGCA, the figure is 0.000355 ± 0.013.
For GGAGACCUAUGACUACAACCUACUACCUCA, the “pre-steady-state target cleavage rate” value worked out at 0.00138 ± 0.0032.
Consider GGAGACCUAUGAUUACAACCUACUACCCUCA, for which the “pre-steady-state target cleavage rate” value worked out at 0.00118 ± 0.0056.
In the case of GGUCUAGAUACUAUACAACCUACUACCUCA, the “pre-steady-state target cleavage rate” value is 1.81 ± 0.11.
With GGAGACCUAUGUAUUCAUCCUACUACCUCA, the “pre-steady-state target cleavage rate” value amounted to 0.00074 ± 0.0036.
Regarding GGAGACCUAUGAUAUGUAGCUACUACCACA, the “pre-steady-state target cleavage rate” value stood at 0.000663 ± 0.0084.
Consider GGAGACCUAUGAAUACAAUCUACUACCUCA, for which the “pre-steady-state target cleavage rate” value turned out to be 0.000207 ± 0.015.
For GGAGACCUAUGAAUACAACCUACUACUCUCA the value was 0.00203 ± 0.0027; for GGAGACCUAUGAAUAUAACCUACUACCUCA, 0.0016 ± 0.003; for GGAGACCUAACUUACAACCUACUACCUCA, 0.00932 ± 0.008.
Regarding GGUCUGCGAUACUAUACAACCUACUACCUCA, the “pre-steady-state target cleavage rate” value amounted to 1.79 ± 0.071.
As for GCUCUCGAUACUAUACAACCUACUACGUCA, the figure is 1.24 ± 0.079.
